# Measurements taken from patent US10851067B2, “Kv7 channel activators compositions and methods of use” (Knopp Biosciences LLC, priority 2018, dated 2020).
# At least one structure is not confirmed: it was looked up by name or label, or the drawing left a doubt.
# Target: Kv7.2/7.3 (Homo sapiens, UniProt O43525+O43526)
# Experiment: Kv7.2/7.3 Activation Assay, QPatch single concentration screen
# Assay type: cell-based
# Set-up: host or cells: HEK cells, tetracycline-inducible expression; key: 1.2-2.9 (+); 3-3.9 (++); >4 (+++) fold increase over baseline; O represents open channel at holding potential
# Conditions: Kv7.2/Kv7.3 co-expressing HEK cells, compound concentration 3 μM, steady-state current at end of 2 s pulse to −30 mV
# Protocol: Kv7.2/7.3 Activation Assay
# The ability of compounds to potentiate K-currents in Kv7.2/7.3 containing HEK cells was assessed using planar patch-clamp on the QPatch automated screening platform.
# The hKv7.2/7.3 cell line was obtained from Chantest (Cleveland, Ohio 44128) cat. #CT6147. These HEK cells will express the Kv7.2/7.3 ion channels when induced.
# Cells were maintained in a media containing DMEM/F12; 50/50 (GIBCO cat. #11330), 10% Fetal Bovine Serum (FBS) (GIBCO cat. #26140), 100 units/mL Penicillin-Streptomycin (GIBCO cat. #15140), 0.005 mg/mL Blasticidin (INVIVOGEN cat. #ant-b1-1), 0.5 mg/mL Geneticin (GIBCO cat. #10131), 0.1 mg/mL Zeocin (GIBCO cat. #R25001). Cells used in the electrophysiology assay were maintained in a media without Blasticidin, Geneticin and Zeocin for 2 days and channel expression was induced by adding tetracycline (BIOLINE cat. #BIO-87030) at a final concentration of 1 mg/mL. Cells were grown in T-175 flask to ˜75% confluency. Currents were recorded 24 hours after channel induction.
# Test compounds were prepared by performing serial dilutions on a Biomek NX^P (BECKMAN COULTER). Final dilutions were made in external recording solution with a final DMSO concentration of 0.1% DMSO. For single concentration screens each plate had 10 μM retigabine as a positive control and 0.1% DMSO as a negative control.
# On the day of the experiment cells were washed with Hank's Balanced Salt Solution (HBBS) (GIBCO cat. #14175) and harvested with Tryple (GIBCO cat. #12604). Cells were then centrifuged at 2000 rpm for 5 minutes and resuspended in CHO-S-SFM (GIBCO cat. #12052) at ˜3×10^6 cells/mL. Cells were stirred for 30 minutes before experiments were started. External recording solution contained (in mM): NaCl (145), KCl (4), CaCl2 (2), MgCl2 (1), HEPES (10) and Glucose (10); pH was adjusted to 7.4 with NaOH and the osmolarity was adjusted to 300-305 mOsM with sucrose if necessary. Internal solution contained (in mM): KCl (125), KF (10), EGTA (5), Na2ATP (5), MgCl2 (3.2), HEPES (5); pH was adjusted to 7.2 with KOH and the osmolarity was adjusted to 298-302 mOsM with sucrose.
# Potassium channel activity was measured on the QPatch HTX (Sophion Bioscience) using QPlates with 48-wells/plate. Each cell was taken as an independent experiment and only one compound was tested per well. […]
# Baseline conditions were obtained by recording 5 sweeps in the external solution only, this was repeated for three applications of the external solution. The effect of test compounds on elicited current was then assessed by recording 5 sweeps in the presence of a 3 μM compound solution. The steady-state current at the end of the 2 s pulse to −30 mV was measured to determine the fold increase from baseline.
row,SMILES,Kv7.2/7.3 Activity: increase over baseline in current
1,"CC(C)(C)n1c(NC(=O)CC(C)(C)C(F)(F)F)nc2cc(F)cc(C#N)c21 [Example 330, N-(1-(tert-butyl)-7-cyano-5-fluoro-1H-benzo[d]imidazol-2-yl)-4,4,4-trifluoro-3,3-dimethylbutanamide]",++ (3-3.9 (++))
2,"CC(C)(C)CC(=O)Nc1nc2ccc(F)c(Br)c2n1C1CCC1 [Example 395, N-(7-bromo-1-cyclobutyl-6-fluoro-1H-benzo[d]imidazol-2-yl)-3,3-dimethylbutanamide]",O
3,"COc1c(Cl)cc(Cl)c2nc(NC(=O)CC(C)(C)O)n(C3CCC3)c12 [Example 415, N-(4,6-dichloro-1-cyclobutyl-7-methoxy-1H-benzo[d]imidazol-2-yl)-3-hydroxy-3-methylbutanamide]",O
4,"CC(C)(O)CC(=O)Nc1nc2ccc(F)c(Br)c2n1C1CCC1 [Example 462, N-(7-bromo-1-cyclobutyl-6-fluoro-1H-benzo[d]imidazol-2-yl)-3-hydroxy-3-methylbutanamide]",++ (3-3.9 (++))
